From patent US20210236541A1, “IODOPHOR COMPOSITION WITH IMPROVED STABILITY IN THE PRESENCE OF ORGANIC MATERIAL” (priority 2014, published 2021)
Some results were stated once for a whole list of compounds, not compound by compound.

Experiments:
[1] = tested on: bank of microorganisms associated with skin, mastitis and lung infections; test: MIC against the bank of microorganisms in growth media and milk; type: cell-based
[2] = tested on: the same bacterial strains; type: cell-based

Substance: polyvinylpyrrolidone iodine [PVP-I]
- concentration effective at inhibiting / eliminating each of the organisms ([1]; growth medium, organisms of Table 1): 500-1,000 mg L^−1
- MIC ([1]; various growth media and a milk environment): 500 to 1000 L⁻¹
- concentration sufficient in killing [2]: 0.01 to 5 mg/L
